The supplement of paper PMC9744312
Where a name gives a salt, the structure may show the parent alone. Some of the results follow. The data scatter; read single values as rough.

Each compound was assayed on Peyronie's disease tunica albuginea primary fibroblasts (assay: inhibition of TGF-beta1-induced alpha-SMA expression (myofibroblast transformation), relative to TGF-beta1-only and untreated controls; higher = stronger inhibition of myofibroblast transformation). Settings: 10 µM; TGF-beta1 10 ng/mL; 72 h.

| SMILES | inhibition of TGF-beta1-induced alpha-SMA expression [%] |
| --- | --- |
| CNCC[C@H](Oc1cccc2ccccc12)c1cccs1 [Duloxetine] | 73.7 |
| CNCC[C@H](Oc1cccc2ccccc12)c1cccs1 [Duloxetine HCl] | 63.5 |
| CO[C@@]1(NC(=O)Cc2cccs2)C(=O)N2C(C(=O)O)=C(COC(N)=O)CS[C@@H]21 [Cefoxitin sodium] | 15.9 |
| CC1(COc2ccc3c(c2)ncn3-c2ccc3cccc(N4CCC(N)CC4)c3n2)COC1 | 95.3 |
| OC[C@@H](O)[C@H](O)[C@@H](O)CO [Xylitol] | -35.5 |
| COc1cc2c(cc1OC)C(=O)C(CC1CCN(Cc3ccccc3)CC1)C2 (centres undefined) [Donepezil] | 49.7 |
| COc1cc2c(cc1OC)C(=O)C(CC1CCN(Cc3ccccc3)CC1)C2 (centres undefined) [Donepezil HCl] | 8.84 |
| CN(C)c1ccc2nc3ccc(=[N+](C)C)cc-3sc2c1 [Methylene Blue] | > 100 |
| COc1ccc(C2C(=O)c3ccccc3C2=O)cc1 [Anisindione] | 26.5 |
| Cc1cccc(C)c1NC(=O)C1CCCCN1C (centres undefined) [Mepivacaine HCl] | 6.11 |
| Cc1cccc(C)c1NC(=O)C1CCCCN1C (centres undefined) [Mepivacaine] | 21.2 |
| CN1C(C(=O)Nc2ccccn2)=C(O)c2sccc2S1(=O)=O [Tenoxicam] | 26.1 |
| N#Cc1ccc2[nH]cc(CCCCN3CCN(c4ccc5oc(C(N)=O)cc5c4)CC3)c2c1 [Vilazodone HCl] | -21.9 |
| Cc1ncc([N+](=O)[O-])n1CC(O)CCl (centres undefined) [Ornidazole] | 26.8 |
| N=C(N)N [Guanidine HCl] | 38.2 |
| C=C[C@H]1CN2CC[C@H]1C[C@@H]2[C@@H](O)c1ccnc2ccc(OC)cc12 [Quinidine sulfate] | 48.3 |
| Cc1c(C(N)=O)cc([N+](=O)[O-])cc1[N+](=O)[O-] [Dinitolmide] | -18.1 |
| Cn1c(=O)c2[nH]cnc2n(C)c1=O [Aminophylline] | -3.68 |
| CS(=O)(=O)c1ccc(C2=C(c3ccccc3)C(=O)OC2)cc1 [Rofecoxib] | 31.6 |
| CN(C)CCC=C1c2ccccc2CCc2ccccc21 [Amitriptyline HCl] | 27.7 |
| Cc1ccnc2c1NC(=O)c1cccnc1N2C1CC1 [Nevirapine] | -5.91 |
| C#C[C@]1(O)CC[C@H]2[C@@H]3CCc4cc(OC5CCCC5)ccc4[C@H]3CC[C@@]21C [Quinestrol] | 46.5 |
| Cc1[nH]c(=O)c(C#N)cc1-c1ccncc1 [Milrinone] | -9.25 |
| FC(F)(F)c1ccc(CNc2ccc(Cc3c[nH]c4ncc(Cl)cc34)cn2)cn1 [Pexidartinib (PLX3397)] | -4.07 |
| CC(=O)N[C@@H](CCC(N)=O)C(=O)O [Aceglutamide] | 99.9 |
| O=NO [Sodium Nitrite] | 11.4 |
| CC(=O)NO [Acetohydroxamic acid] | -16.1 |

Part of the list above, in CSV form:
SMILES,inhibition of TGF-beta1-induced alpha-SMA expression [%]
CN(C)c1ccc2nc3ccc(=[N+](C)C)cc-3sc2c1 [Methylene Blue],> 100
COc1ccc(C2C(=O)c3ccccc3C2=O)cc1 [Anisindione],26.5

Later entries

| SMILES | inhibition of TGF-beta1-induced alpha-SMA expression [%] |
| --- | --- |
| COc1ccc(CCNCC(O)COc2cccc(C)c2)cc1OC (centres undefined) [Bevantolol hydrochloride] | 27.4 |
| CC(C)(Oc1ccc(Cl)cc1)C(=O)O [Clofibric Acid] | 6.64 |
| CC(=O)[C@@]1(O)CC[C@H]2[C@@H]3CCC4=CC(=O)CCC4=C3[C@@H](c3ccc(N(C)C)cc3)C[C@@]21C [Ulipristal] | 16.5 |
| CC1(C)CCC(CN2CCN(c3ccc(C(=O)NS(=O)(=O)c4ccc(NCC5CCOCC5)c([N+](=O)[O-])c4)c(Oc4cnc5[nH]ccc5c4)c3)CC2)=C(c2ccc(Cl)cc2)C1 [Venetoclax (ABT-199, GDC-0199)] | 36.2 |
| CCCCCCCCCCC[C@@H](C[C@@H]1OC(=O)[C@H]1CCCCCC)OC(=O)[C@H](CC(C)C)NC=O [Orlistat] | 10.6 |
| Cc1ccc(NC(=O)c2ccc(CN3CC[C@H](N(C)C)C3)c(C(F)(F)F)c2)cc1Nc1nccc(-c2cncnc2)n1 [Bafetinib (INNO-406)] | 21.7 |
| CC(C)(S)[C@@H](N)C(=O)O [Penicillamine] | 30.4 |
| COc1cc(OC)c(C(=O)CCCN2CCCC2)c(OC)c1 [Buflomedil HCl] | -7.9 |
| O.O.O.O.O=C([O-])CC(O)(CC(=O)[O-])C(=O)[O-].[Li+].[Li+].[Li+] [Citric acid trilithium salt tetrahydrate] | -19.6 |
| N#CC(c1ccc(Cl)cc1)c1c(Cl)cc(-n2ncc(=O)[nH]c2=O)cc1Cl (centres undefined) [Diclazuril] | -5.14 |
| OCc1cc([C@@H](O)CNCCCCCCOCCOCc2c(Cl)cccc2Cl)ccc1O [Vilanterol Trifenate] | 38.2 |
| CC(C)(C)C(=O)OCOP(=O)(COCCn1cnc2c(N)ncnc21)OCOC(=O)C(C)(C)C [Adefovir Dipivoxil] | -5.02 |
| CCOc1ccc(Cc2cc([C@@H]3O[C@H](SC)[C@@H](O)[C@H](O)[C@H]3O)ccc2Cl)cc1 [Sotagliflozin (LX4211)] | 26 |
| CN1CCC(=C2c3ccccc3CC(=O)c3sccc32)CC1 [Ketotifen Fumarate] | 69.4 |
| COc1ccccc1N1CCN(CC(O)COc2cccc3ccccc23)CC1 (centres undefined) [Naftopidil DiHCl] | -4.85 |
| COc1ccccc1N1CCN(CC(O)COc2cccc3ccccc23)CC1 (centres undefined) [Naftopidil] | 0.231 |
| COC(=O)c1ccccc1O [Methyl salicylate] | -17.8 |
| CC(C)(Sc1cc(C(C)(C)C)c(O)c(C(C)(C)C)c1)Sc1cc(C(C)(C)C)c(O)c(C(C)(C)C)c1 [Probucol] | 23.1 |
| C=CC(=O)Nc1cccc(Nc2nc(Nc3ccc(N4CCN(C(C)=O)CC4)cc3OC)ncc2C(F)(F)F)c1 [Rociletinib (CO-1686, AVL-301)] | 40.2 |
| CS(=O)(=O)CCNCc1ccc(-c2ccc3ncnc(Nc4ccc(OCc5cccc(F)c5)c(Cl)c4)c3c2)o1 | 19.5 |
| CS(=O)(=O)CCNCc1ccc(-c2ccc3ncnc(Nc4ccc(OCc5cccc(F)c5)c(Cl)c4)c3c2)o1 [Lapatinib] | > 100 |
| CS(=O)(=O)CCNCc1ccc(-c2ccc3ncnc(Nc4ccc(OCc5cccc(F)c5)c(Cl)c4)c3c2)o1 [Lapatinib ditosylate monohydrate] | 25.2 |
| Nc1c(Br)cc(Br)cc1CN[C@H]1CC[C@H](O)CC1 [Ambroxol] | 31.1 |
| Nc1c(Br)cc(Br)cc1CN[C@H]1CC[C@H](O)CC1 [Ambroxol HCl] | 26.6 |
| Oc1ccc(Cl)c2cccnc12 [Cloxiquine] | > 100 |
| Cn1ccnc1S [Methimazole] | 9.67 |
| Nc1ncn([C@H]2C[C@H](O)[C@@H](CO)O2)c(=O)n1 [Decitabine] | 64.8 |

| SMILES | inhibition of TGF-beta1-induced alpha-SMA expression [%] |
| --- | --- |
| CC(C)(C(=O)c1cccnc1)c1cccnc1 [Metyrapone] | 45.9 |
| CC(C)/N=c1\cc2n(-c3ccc(Cl)cc3)c3ccccc3nc-2cc1Nc1ccc(Cl)cc1 [Clofazimine] | 26.1 |
| O=C1Cc2cc(CCN3CCN(c4nsc5ccccc45)CC3)c(Cl)cc2N1 [Ziprasidone HCl] | 63.3 |
| CCN[C@H]1C[C@H](C)S(=O)(=O)c2sc(S(N)(=O)=O)cc21 [Dorzolamide HCl] | 11.2 |
| CO[C@@]1(NC(=O)CSCC#N)C(=O)N2C(C(=O)O)=C(CSc3nnnn3C)CS[C@@H]21 [Cefmetazole sodium] | -0.373 |
| C[C@@H]1[C@H](O)[C@@H](C)/C=C/C=C/C=C/C=C/C=C/C=C/C=C/[C@H](O[C@@H]2O[C@H](C)[C@@H](O)[C@H](N)[C@@H]2O)C[C@@H]2O[C@](O)(C[C@@H](O)C[C@@H](O)[C@H](O)CC[C@@H](O)C[C@@H](O)CC(=O)O[C@H]1C)C[C@H](O)[C@H]2C(=O)O [Amphotericin B] | 5.78 |
| CN1C2=CC(=O)/C(=N\NC(N)=O)C=C2CC1S(=O)(=O)O (centres undefined) [Carbazochrome sodium sulfonate (AC-17)] | 19.7 |
| CCC(Cc1c(I)cc(I)c(N)c1I)C(=O)O (centres undefined) [Iopanoic acid] | -2.65 |
| CCC(NC(C)C)C(O)c1ccc(O)c(O)c1 (centres undefined) [Isoetharine Mesylate] | 92.6 |
| C[C@]12CC[C@@H]3c4ccc(O)cc4CC[C@H]3[C@@H]1CC[C@@H]2OC(=O)CCC1CCCC1 [Estradiol Cypionate] | 12 |
| CN1CCN(C2=Nc3cc(Cl)ccc3Nc3ccccc32)CC1 [Clozapine] | 25.6 |
| C=CC(=O)N1CCC(Oc2cc3c(Nc4ccc(Cl)c(Cl)c4F)ncnc3cc2OC)CC1 [Poziotinib (HM781-36B)] | 55.7 |
| Cc1ccc(-c2ncc(Cl)cc2-c2ccc(S(C)(=O)=O)cc2)cn1 [Etoricoxib] | 21.4 |
| NCC(=O)O [Glycine] | 15.2 |
| CC1CCc2c(N3CCC(O)CC3)c(F)cc3c(=O)c(C(=O)O)cn1c23 (centres undefined) [Nadifloxacin] | 27.7 |
| Cc1cc(=O)n(-c2ccccc2)n1C [Antipyrine] | 18.8 |
| Clc1ccc(COC(Cn2ccnc2)c2ccc(Cl)cc2Cl)c(Cl)c1 (centres undefined) [Miconazole Nitrate] | 55.2 |
| Clc1ccc(COC(Cn2ccnc2)c2ccc(Cl)cc2Cl)c(Cl)c1 (centres undefined) [Miconazole] | 19.2 |
| CCCN(CCc1cccs1)[C@H]1CCc2c(O)cccc2C1 [Rotigotine] | 10 |
| CS(=O)(=O)n1cc2c(n1)CN([C@H]1CO[C@H](c3cc(F)ccc3F)[C@@H](N)C1)C2 [Omarigliptin (MK-3102)] | -19.3 |
| Cn1ncc(Cl)c1-c1cc(C(=O)N[C@H](CN)Cc2cccc(F)c2)sc1Cl | > 100 |
| NC12CC3CC(CC(C3)C1)C2 [Amantadine HCl] | 14.9 |
| NC12CC3CC(CC(C3)C1)C2 [Amantadine] | 10.7 |
| CO[C@H]1O[C@@H]2O[C@@]3(C)CC[C@H]4[C@H](C)CC[C@@H]([C@H]1C)[C@@]24OO3 [Artemether] | -8.85 |
| Nc1ccc(S(=O)(=O)Nc2ccccn2)cc1 [Sulfapyridine] | 4.58 |

A run of entries of the results above:

| SMILES | inhibition of TGF-beta1-induced alpha-SMA expression [%] |
| --- | --- |
| Cc1ccnc2c1NC(=O)c1cccnc1N2C1CC1 [Nevirapine] | -5.91 |
| C#C[C@]1(O)CC[C@H]2[C@@H]3CCc4cc(OC5CCCC5)ccc4[C@H]3CC[C@@]21C [Quinestrol] | 46.5 |
